This passage reports binding results from paper PMC10903754, “o-Vanillin binds covalently to MAL/TIRAP Lys-210 but independently inhibits TLR2” (Journal of Enzyme Inhibition and Medicinal Chemistry, 2024).

For this assay, the target named is TIR domain of human MAL/TIRAP (MAL^TIR), residues 79-221 (human) (UniProt P58753). The assay is described as follows: condition: only 10 mM NaCl, 10 mM HEPES, pH 7.5, ~106 µM, 20 °C, for ~48 h; solution NMR; ~106 uM 13C-15N labelled MAL^TIR in 10 mM NaCl, 10 mM HEPES pH 7.5, 20 °C; both purified.

Results are given in words; binding and its absence hold for the method and conditions named.

B1: TIR domain of human MAL/TIRAP (MAL^TIR), residues 79-221 (domain or fragment, UniProt P58753 79-221, looked up)
chain: SSRWSKDYDVCVCHSEEDLVAAQDLVSYLEGSTASLRCFLQLRDATPGGAIVSELCQALSSSHCRVLLITPGFLQDPWCKYQMLQALTEAPGAEGCTIPLLSGLSRAAYPPELRFMYYVDGRGPDGGFRQVKEAVMRYLQTLS
notes: MAL (MyD88 adaptor-like protein; TIRAP), human, TIR domain, residues 79-221; construct in the vector pMCSG7; For the NMR work the same construct was 13C-15N labelled and kept in low-salt buffer (10 mM HEPES pH 7.5, 10 mM NaCl); also called WT MAL^TIR; MyD88 adaptor-like protein TIR domain; source: E. coli BL21 (DE3), purified (Ni IMAC, TEV cleavage, SEC Superdex 75)
As for B1, the binding entry is recorded as “no binding”.
